Binding data for one substance are collected here from patent US20250163125A1.

Amino acid sequences for entries named in this document (tags omitted). A change or cut given only in a name is not applied to a line headed by its entry.
UniProt P06729: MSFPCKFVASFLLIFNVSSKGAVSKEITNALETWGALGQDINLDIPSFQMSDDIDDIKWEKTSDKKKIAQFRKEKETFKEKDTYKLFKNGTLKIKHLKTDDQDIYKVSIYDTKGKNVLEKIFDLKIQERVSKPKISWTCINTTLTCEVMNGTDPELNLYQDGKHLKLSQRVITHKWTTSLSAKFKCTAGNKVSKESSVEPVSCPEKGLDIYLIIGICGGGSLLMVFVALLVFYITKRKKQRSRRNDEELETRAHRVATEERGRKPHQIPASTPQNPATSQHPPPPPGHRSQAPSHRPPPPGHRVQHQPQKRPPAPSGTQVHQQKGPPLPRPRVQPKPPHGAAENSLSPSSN
UniProt P19256: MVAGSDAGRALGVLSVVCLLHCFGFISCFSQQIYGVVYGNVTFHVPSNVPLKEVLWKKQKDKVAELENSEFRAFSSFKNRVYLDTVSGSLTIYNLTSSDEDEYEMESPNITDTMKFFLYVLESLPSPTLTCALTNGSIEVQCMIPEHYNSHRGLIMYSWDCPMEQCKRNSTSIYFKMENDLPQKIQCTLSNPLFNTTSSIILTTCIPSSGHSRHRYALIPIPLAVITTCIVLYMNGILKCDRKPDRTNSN

Results are given in words; binding and its absence hold for the method and conditions named. Some results given as binding are weak or reduced against the parent protein; the word gives no strength.

This experiment deals with recombinant human CD2 (human) (UniProt P06729). As to the kind of experiment: flow cytometry on yeast displaying LFA3.

Regarding “yeast-displayed N-terminal Ig-domain of human LFA3 (residues 1-93) (from UniProt P19256 29-121) (ligand)”, the binding entry is on record as “binds”.
